Data as given in PubChem BioAssay AID1259308 (NCATS, 2017).

Test: 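Candidate targets for better recombinant protein yield in mammalian cells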 (primary screen)
Cells: human HEK293 embryonic kidney cells stably expressing firefly luciferase (HEK-CMV-Luc2-Hygro)
Knock-down reagent: single siRNA against human genes, 0.8 pmol siRNA per well
Timing: 72 h
Read-out: 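Luciferase light (ONE-Glo) measured on one replicate plate set and viability (CellTiter-Glo) on the other, scaled to a negative control siRNA, with robust z-scores and luciferase per cell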
Reading the numbers: total luciferase, z-score: higher = more reporter protein produced
Rule for the call: 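Active when the median/MAD z-score for overall luciferase is greater than 3; a gene was taken forward for validation with new siRNAs if at least two of its three siRNAs passed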
Meaning of the calls: active = raised luciferase; inactive = no rise
Shown is an unselected part of about 59,000 reagents tested. Over the whole deposit, about 1,510 (2.6%) got an active call. 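Calls use total luciferase alone and ignore viability, so some active siRNAs may act by altering cell number.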 Reagents against one gene are numbered here. Not all columns of the deposit are shown.

total luciferase, z-score, by gene and reagent
AMIGO3 (GeneID 386724): #1 -0.807 inactive; #2 3.46 active; #3 -1.2 inactive
NEMF (GeneID 9147): #1 2.5 inactive; #2 -0.831 inactive; #3 -1.33 inactive
LOC645984 (retired record) (GeneID 645984): #1 0.256 inactive; #2 0.859 inactive; #3 0.369 inactive
PTGER1 (GeneID 5731): #1 0.0544 inactive; #2 0.0194 inactive; #3 0.39 inactive
SGMS1 (GeneID 259230): #1 -0.549 inactive; #2 -0.362 inactive; #3 -1.42 inactive
CYP2U1 (GeneID 113612): #1 0.594 inactive; #2 -0.608 inactive; #3 -0.216 inactive
CLEC4A (GeneID 50856): #1 0.498 inactive; #2 -0.408 inactive; #3 -0.713 inactive
MIEN1 (GeneID 84299): #1 0.244 inactive; #2 -0.773 inactive; #3 0.549 inactive

Taken from above.
Under “activity call”, CYP2U1 (GeneID 113612) #3 shows inactive
MIEN1 (GeneID 84299) #2, total luciferase, z-score: -0.773
